PubChem BioAssay AID1259290, Sanger Institute | 2017
This is a random part of 794 deposited reagents. Over the whole deposit, 9 (1.1%) are marked active. 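Calls rest on knock-down alone, not drug synergy; synergy above 0.15 was grouped apart and does not affect calls.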 Further read-outs or replicates are left out here. Not stated in the record: the amount of reagent, the time to read-out.

- Purpose: 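siRNA screen across the kinome seeking synthetic lethal partners for BYL719, cetuximab or trametinib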 (primary screen)
- Cells: human SNUC1 colorectal cancer cells
- Reagents: siRNA pool against human genes
- Conditions: anchor drugs BYL719 1 µM, cetuximab 5 µg/ml or trametinib 10 nM, or DMSO vehicle alone
- Measurement: 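Cell viability relative to a non-targeting siRNA control, replicate-averaged, as robust z-score for knock-down alone, plus a synergy score for each anchor drug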
- Reading the numbers: viability z-score, siRNA alone: higher = more viable cells; low values mean essential gene
- Rule for the call: 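Essential when the robust viability z-score with siRNA alone falls below -3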
- Calls: active = essential: knock-down alone cut viability (z below -3); inactive = no clear viability loss with knock-down alone

With ACO1, how do the results read?
viability z-score, siRNA alone: 0.545; outcome: inactive

For FGFR1, what does the deposit list?
viability z-score, siRNA alone: 0.663; outcome: inactive

What did the screen give for MERTK?
viability z-score, siRNA alone: 0.936; outcome: inactive

How did the screen score SKAP1?
viability z-score, siRNA alone: -1.09; outcome: inactive

With NEK10, how do the results read?
viability z-score, siRNA alone: -0.367; outcome: inactive

What is on record for PAPSS1?
viability z-score, siRNA alone: 0.169; outcome: inactive

For IGF1R, what does the deposit list?
viability z-score, siRNA alone: -0.814; outcome: inactive

With MAPK15, what was measured?
viability z-score, siRNA alone: 0.936; outcome: inactive
